In PMC11898301:
Numbering of substitutions follows the chain as printed. Results are given in words; binding and its absence hold for the method and conditions named. Binding seen in cells or lysates may run through a third protein. Some binding calls cover weakened binding; strength is not graded here. Tags and fused reporters may be left off the sequences shown.

The chains behind the UniProt entries cited, without tags or fusion partners.
UniProt Q969H0: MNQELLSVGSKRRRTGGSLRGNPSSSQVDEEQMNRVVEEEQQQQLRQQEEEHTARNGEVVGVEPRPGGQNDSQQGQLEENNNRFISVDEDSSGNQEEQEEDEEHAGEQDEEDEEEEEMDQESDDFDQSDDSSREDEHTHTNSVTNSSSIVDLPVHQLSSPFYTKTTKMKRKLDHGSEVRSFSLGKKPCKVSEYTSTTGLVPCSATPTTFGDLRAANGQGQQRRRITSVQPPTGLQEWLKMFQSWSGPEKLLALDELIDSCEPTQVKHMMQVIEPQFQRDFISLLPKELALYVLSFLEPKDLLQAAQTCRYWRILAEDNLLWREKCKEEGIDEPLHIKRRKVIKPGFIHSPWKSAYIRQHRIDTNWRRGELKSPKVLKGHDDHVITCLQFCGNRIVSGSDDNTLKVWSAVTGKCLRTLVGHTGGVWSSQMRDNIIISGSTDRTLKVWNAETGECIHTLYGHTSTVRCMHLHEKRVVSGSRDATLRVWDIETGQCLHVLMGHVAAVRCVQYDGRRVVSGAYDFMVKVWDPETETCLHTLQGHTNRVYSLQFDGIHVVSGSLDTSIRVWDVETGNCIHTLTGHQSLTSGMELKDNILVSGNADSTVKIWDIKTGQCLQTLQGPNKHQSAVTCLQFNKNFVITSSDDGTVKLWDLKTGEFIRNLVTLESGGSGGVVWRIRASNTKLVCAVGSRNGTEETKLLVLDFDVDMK

Tests used:
Assay in all cases: co-IP; 293T cells transfected with HA-PRR11 (WT, fragments or mutants) and Flag-GSK3β or Flag-FBXW7 (WT or mutants); MG132 10 μM for 6 h before collection; IP with HA or Flag antibody, Protein A/G magnetic beads, Western blot; in some panels λ-PPase added to extracts, CHIR-99021, siGSK3β or GSK3β overexpression
[1] = target: T1, HA-PRR11-1Δ (I286_S291del) (human) (UniProt Q96HE9)
T1 sequence: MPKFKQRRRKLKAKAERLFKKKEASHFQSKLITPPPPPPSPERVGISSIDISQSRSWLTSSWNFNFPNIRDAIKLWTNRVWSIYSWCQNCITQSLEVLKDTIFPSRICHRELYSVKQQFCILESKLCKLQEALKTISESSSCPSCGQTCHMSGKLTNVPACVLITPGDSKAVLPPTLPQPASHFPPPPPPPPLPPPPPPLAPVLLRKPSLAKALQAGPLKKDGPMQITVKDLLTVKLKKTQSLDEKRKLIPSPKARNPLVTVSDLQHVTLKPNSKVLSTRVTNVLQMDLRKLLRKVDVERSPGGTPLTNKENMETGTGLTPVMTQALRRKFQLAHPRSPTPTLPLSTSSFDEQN

[2] = target: T2, HA-PRR11-2A (T326A/T330A) (human) (UniProt Q96HE9)
T2 sequence: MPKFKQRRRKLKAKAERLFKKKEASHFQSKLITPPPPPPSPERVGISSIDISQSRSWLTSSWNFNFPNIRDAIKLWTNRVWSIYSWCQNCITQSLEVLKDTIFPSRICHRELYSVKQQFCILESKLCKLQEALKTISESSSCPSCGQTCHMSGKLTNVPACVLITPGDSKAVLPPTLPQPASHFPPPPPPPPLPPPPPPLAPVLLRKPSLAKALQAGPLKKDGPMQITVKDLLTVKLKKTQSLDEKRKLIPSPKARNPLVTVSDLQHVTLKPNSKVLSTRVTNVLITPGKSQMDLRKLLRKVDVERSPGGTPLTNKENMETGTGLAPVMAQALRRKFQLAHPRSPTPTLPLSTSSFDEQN

[3] = target: T3, HA-PRR11-2Δ (L325_T330del) (human) (UniProt Q96HE9)
T3 sequence: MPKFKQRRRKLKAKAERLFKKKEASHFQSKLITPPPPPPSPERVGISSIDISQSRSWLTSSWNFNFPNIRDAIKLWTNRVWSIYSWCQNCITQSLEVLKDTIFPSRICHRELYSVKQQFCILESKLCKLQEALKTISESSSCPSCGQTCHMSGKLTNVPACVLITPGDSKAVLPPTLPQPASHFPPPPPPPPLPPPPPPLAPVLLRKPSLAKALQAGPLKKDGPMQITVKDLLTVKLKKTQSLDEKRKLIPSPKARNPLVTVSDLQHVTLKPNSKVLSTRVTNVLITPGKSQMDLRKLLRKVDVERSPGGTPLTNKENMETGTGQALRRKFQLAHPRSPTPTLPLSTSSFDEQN

[4] = target: T4, HA-PRR11-1D (T287D/S291D) (human) (UniProt Q96HE9)
T4 sequence: T2 sequence with T287D, S291D, A326T, A330T

[5] = target: T5, HA-PRR11-1D/2D (T287D/S291D/T326D/T330D) (human) (UniProt Q96HE9)
T5 sequence: T2 sequence with T287D, S291D, A326D, A330D

Measured: binding

Flag-FBXW7 (from UniProt Q969H0 1-707)
binds: all assays above
